For this data set, the system named is LNCaP cells. Put plainly: RNA-seq differential expression in LNCaP cells. Particulars: 72 hours. The format is cell-based, human.

The amount applied is not stated for every result.

In the case of `CCc1noc(C)c1COc1cccc(C(=O)NNC(=O)c2ccc3ccccc3n2)c1` [compound 17, N′-(3-((3-ethyl-5-methylisoxazol-4-yl)methoxy)benzoyl)quinoline-2-carbohydrazide], the “differentially expressed genes (DEGs) versus DMSO control” value was 1,493 genes, the down-regulated genes is reported as 582 genes and the up-regulated genes is 911 genes.
